# Data from the supplement of paper PMC10849652.
# Protein sequences, listed by entry. Tags and fused reporters are not part of them. Lines headed by an entry give the natural chain unless they say otherwise; changes in a name come on top.
# UniProt P02656: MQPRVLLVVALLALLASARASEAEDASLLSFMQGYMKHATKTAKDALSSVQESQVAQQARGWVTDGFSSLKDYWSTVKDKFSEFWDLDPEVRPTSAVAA
# UniProt O00192: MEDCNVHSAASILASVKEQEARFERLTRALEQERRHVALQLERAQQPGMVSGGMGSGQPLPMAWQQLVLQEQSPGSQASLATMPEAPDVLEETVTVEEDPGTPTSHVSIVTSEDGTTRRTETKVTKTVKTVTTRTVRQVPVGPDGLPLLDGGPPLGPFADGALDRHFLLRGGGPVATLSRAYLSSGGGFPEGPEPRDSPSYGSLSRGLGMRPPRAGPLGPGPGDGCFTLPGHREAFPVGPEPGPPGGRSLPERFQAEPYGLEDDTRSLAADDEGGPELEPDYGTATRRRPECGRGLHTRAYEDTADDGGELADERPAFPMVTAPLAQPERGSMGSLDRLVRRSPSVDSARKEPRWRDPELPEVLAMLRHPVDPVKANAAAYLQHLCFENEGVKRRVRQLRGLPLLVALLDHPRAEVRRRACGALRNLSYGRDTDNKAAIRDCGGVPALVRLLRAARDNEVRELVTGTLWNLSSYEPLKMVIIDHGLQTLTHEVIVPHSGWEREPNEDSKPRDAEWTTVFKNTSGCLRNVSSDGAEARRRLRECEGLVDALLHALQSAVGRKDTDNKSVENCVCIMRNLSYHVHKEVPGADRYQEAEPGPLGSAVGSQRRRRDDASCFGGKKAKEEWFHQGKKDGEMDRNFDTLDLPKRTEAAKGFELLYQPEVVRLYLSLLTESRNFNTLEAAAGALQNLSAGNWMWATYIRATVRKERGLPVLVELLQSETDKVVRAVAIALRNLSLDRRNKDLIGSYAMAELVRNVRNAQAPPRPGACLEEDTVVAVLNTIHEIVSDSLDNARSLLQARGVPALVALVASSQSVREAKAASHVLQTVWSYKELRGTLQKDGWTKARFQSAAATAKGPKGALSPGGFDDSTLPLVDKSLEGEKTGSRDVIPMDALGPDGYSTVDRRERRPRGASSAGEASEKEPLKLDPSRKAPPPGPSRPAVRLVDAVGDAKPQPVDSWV
# UniProt Q9BZZ5: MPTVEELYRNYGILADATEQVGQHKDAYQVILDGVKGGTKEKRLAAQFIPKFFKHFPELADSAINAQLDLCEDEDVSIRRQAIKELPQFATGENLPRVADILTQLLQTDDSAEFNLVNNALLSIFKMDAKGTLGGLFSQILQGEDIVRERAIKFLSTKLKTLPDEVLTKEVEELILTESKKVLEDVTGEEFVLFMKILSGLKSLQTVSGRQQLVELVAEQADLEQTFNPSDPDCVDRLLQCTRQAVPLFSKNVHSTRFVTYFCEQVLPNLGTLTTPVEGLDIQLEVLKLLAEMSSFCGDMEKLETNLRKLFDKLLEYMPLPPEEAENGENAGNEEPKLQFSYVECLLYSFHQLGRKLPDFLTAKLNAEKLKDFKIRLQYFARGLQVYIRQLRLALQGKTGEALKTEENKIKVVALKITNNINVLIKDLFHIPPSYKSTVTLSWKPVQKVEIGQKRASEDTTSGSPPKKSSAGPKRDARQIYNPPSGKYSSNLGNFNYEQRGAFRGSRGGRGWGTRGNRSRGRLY
# UniProt Q8TER5, whole entry, looked up: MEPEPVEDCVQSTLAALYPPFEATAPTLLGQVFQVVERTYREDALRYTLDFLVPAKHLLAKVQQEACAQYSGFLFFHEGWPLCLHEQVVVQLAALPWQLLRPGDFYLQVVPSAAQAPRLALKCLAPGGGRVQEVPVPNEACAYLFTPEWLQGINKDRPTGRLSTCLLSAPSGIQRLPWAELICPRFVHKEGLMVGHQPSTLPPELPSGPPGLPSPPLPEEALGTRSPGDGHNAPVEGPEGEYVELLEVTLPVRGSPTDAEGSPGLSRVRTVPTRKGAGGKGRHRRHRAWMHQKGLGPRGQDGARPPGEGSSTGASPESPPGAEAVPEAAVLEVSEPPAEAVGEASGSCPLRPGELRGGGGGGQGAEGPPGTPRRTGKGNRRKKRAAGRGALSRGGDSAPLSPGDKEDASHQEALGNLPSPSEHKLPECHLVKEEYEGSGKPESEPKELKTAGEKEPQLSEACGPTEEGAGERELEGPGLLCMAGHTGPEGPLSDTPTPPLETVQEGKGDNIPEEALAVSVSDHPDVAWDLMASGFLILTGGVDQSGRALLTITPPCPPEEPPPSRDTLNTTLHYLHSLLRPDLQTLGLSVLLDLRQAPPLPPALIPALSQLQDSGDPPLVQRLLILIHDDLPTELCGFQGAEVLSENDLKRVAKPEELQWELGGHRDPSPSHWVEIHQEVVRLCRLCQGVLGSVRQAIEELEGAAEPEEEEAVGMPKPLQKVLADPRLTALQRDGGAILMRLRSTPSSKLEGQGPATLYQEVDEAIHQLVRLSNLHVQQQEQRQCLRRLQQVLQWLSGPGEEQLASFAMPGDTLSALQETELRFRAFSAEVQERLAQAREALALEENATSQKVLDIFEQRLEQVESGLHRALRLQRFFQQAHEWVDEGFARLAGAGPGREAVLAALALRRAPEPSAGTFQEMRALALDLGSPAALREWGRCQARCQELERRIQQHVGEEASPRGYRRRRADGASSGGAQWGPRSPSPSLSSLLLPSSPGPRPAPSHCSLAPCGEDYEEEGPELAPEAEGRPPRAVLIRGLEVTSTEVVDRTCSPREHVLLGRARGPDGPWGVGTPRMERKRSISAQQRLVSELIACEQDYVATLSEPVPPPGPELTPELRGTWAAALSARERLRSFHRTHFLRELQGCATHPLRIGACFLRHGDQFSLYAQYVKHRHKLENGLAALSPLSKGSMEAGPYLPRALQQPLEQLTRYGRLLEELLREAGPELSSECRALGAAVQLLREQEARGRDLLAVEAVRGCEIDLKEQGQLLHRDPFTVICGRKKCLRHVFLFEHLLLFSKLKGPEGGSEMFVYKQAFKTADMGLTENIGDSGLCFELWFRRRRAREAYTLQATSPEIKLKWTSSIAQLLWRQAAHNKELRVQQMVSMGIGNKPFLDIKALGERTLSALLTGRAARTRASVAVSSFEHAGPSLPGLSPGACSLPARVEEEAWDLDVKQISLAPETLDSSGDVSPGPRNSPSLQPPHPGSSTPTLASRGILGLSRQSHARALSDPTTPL
# UniProt Q66PJ3: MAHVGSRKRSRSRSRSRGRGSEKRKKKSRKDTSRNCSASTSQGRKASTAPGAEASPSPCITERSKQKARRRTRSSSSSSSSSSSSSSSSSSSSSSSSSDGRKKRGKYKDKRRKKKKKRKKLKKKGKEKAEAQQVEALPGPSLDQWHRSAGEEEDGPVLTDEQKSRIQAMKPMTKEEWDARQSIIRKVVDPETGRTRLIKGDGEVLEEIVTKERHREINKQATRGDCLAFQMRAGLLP
# UniProt Q9NUS5: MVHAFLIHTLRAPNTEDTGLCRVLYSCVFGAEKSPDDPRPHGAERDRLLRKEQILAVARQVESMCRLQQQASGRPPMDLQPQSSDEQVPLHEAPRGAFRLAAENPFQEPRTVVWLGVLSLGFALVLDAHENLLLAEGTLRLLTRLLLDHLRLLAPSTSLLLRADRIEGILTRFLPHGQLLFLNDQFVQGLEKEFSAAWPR
# UniProt P29374: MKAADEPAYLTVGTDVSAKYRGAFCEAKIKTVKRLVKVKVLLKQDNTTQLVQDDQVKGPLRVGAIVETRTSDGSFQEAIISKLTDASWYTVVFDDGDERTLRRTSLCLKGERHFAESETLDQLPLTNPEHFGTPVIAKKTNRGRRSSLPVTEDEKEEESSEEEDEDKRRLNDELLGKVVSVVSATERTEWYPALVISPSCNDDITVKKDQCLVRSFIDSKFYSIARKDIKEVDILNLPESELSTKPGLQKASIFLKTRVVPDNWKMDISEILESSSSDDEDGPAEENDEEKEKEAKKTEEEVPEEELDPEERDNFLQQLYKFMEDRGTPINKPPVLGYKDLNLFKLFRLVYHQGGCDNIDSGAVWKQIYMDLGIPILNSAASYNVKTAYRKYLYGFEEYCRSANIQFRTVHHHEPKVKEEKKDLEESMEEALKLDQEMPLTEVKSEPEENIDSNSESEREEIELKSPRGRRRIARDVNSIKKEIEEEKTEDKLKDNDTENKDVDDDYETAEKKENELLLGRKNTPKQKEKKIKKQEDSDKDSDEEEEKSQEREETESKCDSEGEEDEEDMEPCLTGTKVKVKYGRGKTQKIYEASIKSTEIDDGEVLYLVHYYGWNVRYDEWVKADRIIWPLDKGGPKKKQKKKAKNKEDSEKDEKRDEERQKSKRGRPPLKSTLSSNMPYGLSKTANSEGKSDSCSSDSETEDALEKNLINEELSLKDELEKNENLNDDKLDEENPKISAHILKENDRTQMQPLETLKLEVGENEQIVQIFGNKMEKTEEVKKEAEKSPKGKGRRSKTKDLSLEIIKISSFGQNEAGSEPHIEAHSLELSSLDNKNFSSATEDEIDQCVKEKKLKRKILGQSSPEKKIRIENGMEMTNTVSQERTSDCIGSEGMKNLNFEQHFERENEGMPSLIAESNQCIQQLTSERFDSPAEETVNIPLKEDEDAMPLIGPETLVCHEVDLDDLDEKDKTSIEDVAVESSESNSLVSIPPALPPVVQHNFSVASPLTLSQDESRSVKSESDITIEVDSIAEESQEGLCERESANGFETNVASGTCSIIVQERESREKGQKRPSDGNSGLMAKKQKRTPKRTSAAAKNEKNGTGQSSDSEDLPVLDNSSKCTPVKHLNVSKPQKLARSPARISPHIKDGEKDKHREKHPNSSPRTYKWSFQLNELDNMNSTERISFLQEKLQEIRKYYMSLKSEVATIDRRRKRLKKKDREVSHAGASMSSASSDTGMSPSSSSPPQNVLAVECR
# UniProt Q9NXU5: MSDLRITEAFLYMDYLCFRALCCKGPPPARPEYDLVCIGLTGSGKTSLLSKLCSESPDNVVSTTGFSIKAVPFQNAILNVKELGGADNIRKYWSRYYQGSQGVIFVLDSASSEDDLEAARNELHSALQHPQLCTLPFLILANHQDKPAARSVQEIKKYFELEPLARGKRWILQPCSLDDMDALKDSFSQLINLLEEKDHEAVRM
# UniProt Q9Y689: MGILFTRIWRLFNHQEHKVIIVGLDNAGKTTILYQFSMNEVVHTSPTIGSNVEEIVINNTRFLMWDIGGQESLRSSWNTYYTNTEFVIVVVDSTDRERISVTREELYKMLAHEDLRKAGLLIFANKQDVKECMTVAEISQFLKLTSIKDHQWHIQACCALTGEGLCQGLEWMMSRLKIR
# UniProt Q8IUX4: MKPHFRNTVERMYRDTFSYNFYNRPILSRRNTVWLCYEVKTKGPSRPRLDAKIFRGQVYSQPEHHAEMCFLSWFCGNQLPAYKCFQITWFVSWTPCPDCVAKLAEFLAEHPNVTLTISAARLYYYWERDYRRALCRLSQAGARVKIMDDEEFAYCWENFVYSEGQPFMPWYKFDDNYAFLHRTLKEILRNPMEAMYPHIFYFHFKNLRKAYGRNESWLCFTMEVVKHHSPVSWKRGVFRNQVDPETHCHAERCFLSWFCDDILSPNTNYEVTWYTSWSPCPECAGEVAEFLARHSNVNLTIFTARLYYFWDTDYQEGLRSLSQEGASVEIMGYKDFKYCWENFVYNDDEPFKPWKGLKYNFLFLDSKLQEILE
# UniProt Q9H2J1: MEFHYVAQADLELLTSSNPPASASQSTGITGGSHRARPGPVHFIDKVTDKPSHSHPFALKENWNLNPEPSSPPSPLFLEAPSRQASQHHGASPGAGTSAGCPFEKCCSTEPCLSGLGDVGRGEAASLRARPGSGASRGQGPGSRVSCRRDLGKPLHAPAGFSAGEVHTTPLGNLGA
# UniProt Q96KC2: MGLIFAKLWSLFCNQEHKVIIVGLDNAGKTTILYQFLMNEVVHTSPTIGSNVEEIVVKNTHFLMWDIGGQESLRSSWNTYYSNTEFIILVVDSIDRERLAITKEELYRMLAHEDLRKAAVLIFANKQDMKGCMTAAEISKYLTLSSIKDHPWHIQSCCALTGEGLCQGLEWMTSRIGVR
# UniProt P02647, whole entry, looked up: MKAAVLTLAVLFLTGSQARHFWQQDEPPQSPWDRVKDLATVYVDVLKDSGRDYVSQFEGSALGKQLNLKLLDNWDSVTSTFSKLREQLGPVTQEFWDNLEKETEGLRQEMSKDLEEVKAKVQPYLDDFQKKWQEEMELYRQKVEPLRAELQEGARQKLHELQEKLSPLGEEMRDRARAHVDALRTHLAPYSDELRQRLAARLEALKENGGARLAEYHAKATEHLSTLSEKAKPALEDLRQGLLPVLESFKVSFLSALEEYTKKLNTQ
# Some of the results follow.
# What was measured:
# Assay in all cases: log2 fold change, soluble protein after heating vs DMSO (PISA); higher = thermal stabilisation; K562 lysate, 10 uM; active = over 0.2 and 3.5 SD of the protein, either way, in both replicates (recomputed)
# [1] = compound: CC1=C2C(=CC=C1)N=C(N(C2=O)C3=CC=CC=C3C)CN4C=NC5=C(N=CN=C54)N
# In short: (§1)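 Pellets of K562 cells were dounce-homogenised in PBS pH 7.4 with 1 mM MgCl2, and the crude extract was held at 1 mg/mL protein for a 30 min treatment with 10 μM compound. Aliquots were heated for 3 min over 48°C-58°C and pooled before NP-40 was added to 0.5% at 4°C. The supernatant from 21,000xg for 90 min was quantified by TMTpro 16plex LC-MS/MS with channel sums equalised. Values are reported from duplicates as log-two fold change in thermal stability relative to solvent controls.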
# [2] = compound: Cc1sc2c(c1C)C(c1ccc(Cl)cc1)=N[C@@H](CC(=O)OC(C)(C)C)c1nnc(C)n1-2
# In short: as §1
# [3] = compound: c1ccc([C@@H]2C[C@H]2NC2CCNCC2)cc1
# In short: as §1
# [4] = compound: C1=CC=C(C=C1)[C@H](COC2=CC3=C(C=C2)NC(=O)N3)NC(=O)C4=CC=CN(C4=O)CC5=CC(=C(C=C5)F)F
# In short: as §1
# [5] = compound: CC1=C(SC2=C1C(=N[C@H](C3=NN=C(N32)C)CC(=O)N)C4=CC=C(C=C4)Cl)C
# In short: as §1
Target,log2 fold change [1],log2 fold change [2],log2 fold change [3],log2 fold change [4],log2 fold change [5]
APOC3 (UniProt P02656),inactive: -0.473,inactive: -0.086,,,
ARVCF (UniProt O00192),inactive: 0.192,inactive: -0.073,inactive: -0.107,,
ARAP3 (UniProt Q8WWN8),,inactive: -0.004,inactive: 0.082,,
API5 isoform 1 (UniProt Q9BZZ5),,,inactive: 0.19,,
ARHGEF40 (UniProt Q8TER5),,inactive: -0.068,,,
ARL6IP4 isoform 2 (UniProt Q66PJ3),,,inactive: -0.059,,
AP5S1 (UniProt Q9NUS5),,inactive: 0,,,
ARID4A (UniProt P29374),inactive: 0.072,inactive: 0.017,inactive: 0.15,,
ARL15 (UniProt Q9NXU5),inactive: 0.018,inactive: -0.009,inactive: 0.269,inactive: 0.02,inactive: -0.005
ARL5A (UniProt Q9Y689),inactive: 0.115,inactive: -0.105,inactive: 0.073,,
APOBEC3F (UniProt Q8IUX4),inactive: -0.024,,inactive: 0.189,inactive: 0.072,inactive: 0.007
ARRDC1-AS1 (UniProt Q9H2J1),,,inactive: 0.16,,
ARL5B (UniProt Q96KC2),inactive: 0.003,,inactive: 0.019,inactive: 0.037,inactive: -0.083
APOA1 (UniProt P02647),inactive: -0.036,inactive: -0.136,inactive: -0.06,inactive: 0.006,inactive: -0.183

# Pulled one by one from above:
Target,log2 fold change [1],log2 fold change [2],log2 fold change [3],log2 fold change [4],log2 fold change [5]
ARRDC1-AS1 (UniProt Q9H2J1),,,inactive: 0.16,,
ARID4A (UniProt P29374),inactive: 0.072,inactive: 0.017,inactive: 0.15,,
